According to patent US20140314774A1 (UAB RESEARCH FOUNDATION, published 2014):
No constants are given. Whether binding was seen depends on the method and setting. In cells and extracts the contact can be indirect. A yes stands for co-enrichment or nearness to the bait. Other partners may have been found.

Chains of the proteins cited; added tags and fusions are not shown. Residues count along the entry.
UniProt P21860, residues 20-1342: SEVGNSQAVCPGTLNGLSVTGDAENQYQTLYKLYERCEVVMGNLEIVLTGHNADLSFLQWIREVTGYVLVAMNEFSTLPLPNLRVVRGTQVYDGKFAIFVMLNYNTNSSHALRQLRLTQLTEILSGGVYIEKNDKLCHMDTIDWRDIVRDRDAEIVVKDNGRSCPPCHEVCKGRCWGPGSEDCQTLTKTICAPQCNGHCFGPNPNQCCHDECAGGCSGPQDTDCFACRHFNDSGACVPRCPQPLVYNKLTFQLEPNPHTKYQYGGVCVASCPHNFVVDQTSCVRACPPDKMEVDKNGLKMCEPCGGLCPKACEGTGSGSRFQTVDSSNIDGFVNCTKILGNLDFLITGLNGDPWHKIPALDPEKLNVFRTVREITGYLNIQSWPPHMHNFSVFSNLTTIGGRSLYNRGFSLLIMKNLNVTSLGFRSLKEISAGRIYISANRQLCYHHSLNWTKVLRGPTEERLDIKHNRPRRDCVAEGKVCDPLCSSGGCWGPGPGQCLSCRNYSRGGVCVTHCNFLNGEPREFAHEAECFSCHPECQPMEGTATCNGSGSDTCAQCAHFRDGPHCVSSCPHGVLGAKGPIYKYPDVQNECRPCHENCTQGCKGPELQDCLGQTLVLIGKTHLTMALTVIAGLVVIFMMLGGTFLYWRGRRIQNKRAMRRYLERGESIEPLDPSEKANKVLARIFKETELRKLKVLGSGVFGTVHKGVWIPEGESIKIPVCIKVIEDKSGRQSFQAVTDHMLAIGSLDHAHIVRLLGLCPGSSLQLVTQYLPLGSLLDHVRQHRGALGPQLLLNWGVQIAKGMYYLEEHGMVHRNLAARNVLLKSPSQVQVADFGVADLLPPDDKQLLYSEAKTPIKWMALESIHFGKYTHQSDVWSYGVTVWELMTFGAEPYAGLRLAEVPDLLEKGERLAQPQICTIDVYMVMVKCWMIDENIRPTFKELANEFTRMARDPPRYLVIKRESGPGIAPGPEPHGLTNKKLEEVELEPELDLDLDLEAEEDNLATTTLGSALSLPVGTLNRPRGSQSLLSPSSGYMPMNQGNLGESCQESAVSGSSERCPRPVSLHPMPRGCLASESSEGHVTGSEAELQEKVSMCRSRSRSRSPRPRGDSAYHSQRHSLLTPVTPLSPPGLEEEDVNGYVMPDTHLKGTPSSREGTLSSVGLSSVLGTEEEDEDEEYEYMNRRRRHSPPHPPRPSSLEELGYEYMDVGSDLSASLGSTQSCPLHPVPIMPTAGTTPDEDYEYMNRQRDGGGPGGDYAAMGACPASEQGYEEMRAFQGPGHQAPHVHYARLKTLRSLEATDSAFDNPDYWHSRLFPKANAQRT

Biological target: HER3 of human cancer cell lines (endogenous) (human) (UniProt P21860)
Assay: immunoprecipitation and mass spectrometry

B1: 1A5 antibody (antibody, V domains shown)
VH: QVQLQQSGAELARPGASVKLSCKASGYTFTDNYINWMKQRPGQGLEWIGEIYPGSGNTYYNEKFKGKATLTADKSSSTAYMQLSSLTSEESAVYFCARSPNLRLYYFDYWGQGTTLTVSS
VL: DIVMTQSPATLSVTPGDRVSLSCRASQSINDYLYWYQQKLHESPRLLIKFASHSISGIPSRFSGSGSGSDFTLSINSVEPEDVGVYYCQNGHSFPLTFGAGTKLELK
notes: Hybridoma monoclonal antibody detected with goat anti-mouse IgG; also called ligand-independent HER3 antibody
B1 was tested. Which binding did it give?
Its binding is “binds”.
